Experimental data published in publication PMC12249877.

The chains behind the UniProt entries cited, without tags or fusion partners. Residues count along the entry.
UniProt Q64MA1, 32-103 E66A: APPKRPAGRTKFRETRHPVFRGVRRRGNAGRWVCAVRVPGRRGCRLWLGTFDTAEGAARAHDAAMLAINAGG
UniProt Q64MA1, 32-103 R40A: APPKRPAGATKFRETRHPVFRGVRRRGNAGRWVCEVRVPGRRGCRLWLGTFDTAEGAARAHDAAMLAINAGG

Experiments:
[1] = molecular target: OsDREB1A-DBD E66A (Oryza sativa (rice)) (UniProt Q64MA1); assay: EMSA; details: 0.6 uM protein; EMSA: 0.01 uM FAM-dsDNA, 50 mM NaH2PO4, 150 mM NaCl, 5 mM DTT, 2% glycerol, pH 6.8, 15 min, room temperature; 12% native PAGE in 0.5x TBE; recombinant protein; residues 32-103; protein details: C-terminal His-tag (pET28)
[2] = molecular target: OsDREB1A-DBD R40A (Oryza sativa (rice)) (UniProt Q64MA1); assay: EMSA; details: 0.6 uM protein; EMSA: 0.01 uM FAM-dsDNA, 50 mM NaH2PO4, 150 mM NaCl, 5 mM DTT, 2% glycerol, pH 6.8, 15 min, room temperature; 12% native PAGE in 0.5x TBE; recombinant protein; residues 32-103; protein details: C-terminal His-tag (pET28)

Sequence: GTACGCCGACACT (double strand) [CRT]
- binding result [1]: binds more weakly
- binding result [2]: binds more weakly

A weaker result is weaker than the reference pair of the same experiment.
